# Some of the results follow.
# Target: T1, OsSMF1 (Oryza sativa, UniProt Q6ZLB0 1-436)
# T1 sequence: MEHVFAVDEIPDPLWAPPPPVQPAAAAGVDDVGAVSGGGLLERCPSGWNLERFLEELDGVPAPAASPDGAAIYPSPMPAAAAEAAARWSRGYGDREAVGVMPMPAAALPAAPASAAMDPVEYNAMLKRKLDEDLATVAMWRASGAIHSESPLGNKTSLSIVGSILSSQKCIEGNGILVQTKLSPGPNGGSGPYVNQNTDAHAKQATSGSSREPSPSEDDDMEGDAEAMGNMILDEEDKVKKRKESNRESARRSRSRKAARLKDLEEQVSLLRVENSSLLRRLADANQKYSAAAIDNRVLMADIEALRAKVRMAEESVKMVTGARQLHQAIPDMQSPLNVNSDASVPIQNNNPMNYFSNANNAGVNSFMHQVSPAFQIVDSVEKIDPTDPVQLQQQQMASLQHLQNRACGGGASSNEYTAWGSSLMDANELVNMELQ
# Test: protein-binding microarray (RPBM); PBS, 2% BSA, 51.3 ng/ul salmon testes DNA, 50 uM zinc acetate, 200 nM TF, 25 C, 1 h; high values mean tight binding
# Details: protein: recombinant; tags: N-terminal polyhistidine and DsRed monomer fusion (pET32a); chain copies: 2; label: CyDye5-dUTP incorporated in the synthesized complementary strand; 3' TTTTT single-stranded linker to array surface; dsDNA, one strand shown
# How it was run: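 The binding signal is fluorescence intensity per feature, in arbitrary units, read on an Axon 4000B scanner. Polyhistidine- and DsRed-tagged transcription factors (N-terminal fusions) from E. coli BL21-CodonPlus were purified on Ni–NTA and applied at 200 nM for 1 h at 25 °C to a double-stranded, BSA-blocked custom Agilent array in buffer with 50 µM zinc acetate.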
row,Sequence,binding signal
1,ATCTTAAGCTCCTCATTTCATCTATGATTGGCTTGCTTTACGGAGTCACCTAGTGCAG,3180 fluorescence intensity (a.u.)
2,AAGTGCCTATGTCATCTCCAAGCATATAAGCAATACGTGGCGGAGTCACCTAGTGCAG,9520 fluorescence intensity (a.u.)
3,TGGTTGTAACTAACACGTATAGTAACGCCTGCTTATCTCGCGGAGTCACCTAGTGCAG,3370 fluorescence intensity (a.u.)
4,GGTGACAATATATCATATTATTAATGATCACATGTGTTGGCGGAGTCACCTAGTGCAG,4560 fluorescence intensity (a.u.)
5,TACTCCTACTTGTTTCCAGTACTTGGTATCATGTCTAGCACGGAGTCACCTAGTGCAG,4330 fluorescence intensity (a.u.)
6,AATTGGTTTTCTTAACATGCTATCATCATAACGTAATGCACGGAGTCACCTAGTGCAG,3420 fluorescence intensity (a.u.)
7,TAATAAGATGAAAAGCTACTGAATTTGTAATCAGGAGATACGGAGTCACCTAGTGCAG,3480 fluorescence intensity (a.u.)
8,ATCTGGCATAGAAACGTTGTCACTCTCATCGGCTACTGCCCGGAGTCACCTAGTGCAG,19300 fluorescence intensity (a.u.)
9,CCGCTCCACTCTCCACCCGGGATGGCGGACGCCACGCACGCGGAGTCACCTAGTGCAG,5350 fluorescence intensity (a.u.)
10,ATCCGGTCTTGTGGTCAACAGACGAATTTCGAACTCGACGCGGAGTCACCTAGTGCAG,3160 fluorescence intensity (a.u.)
11,TATTGGATATTTTGCATTGTTTTGGTTGTAGACGTGGTTTCGGAGTCACCTAGTGCAG,3860 fluorescence intensity (a.u.)
12,GGAGAAAGAAAATGACGGAGTGACGTATTCGATGACAGTGCGGAGTCACCTAGTGCAG,3240 fluorescence intensity (a.u.)
13,GCCCAGCCAAATTTCCCTTGACACGCACCTAAATTAGGCGCGGAGTCACCTAGTGCAG,3800 fluorescence intensity (a.u.)
14,TTGGCGTTGATGTGGCATGCCACACATACATGACATGACACGGAGTCACCTAGTGCAG,6560 fluorescence intensity (a.u.)
15,GTCTTGCCTTCACCGCTAAGCATCAGCCGCTGACGTCAGCCGGAGTCACCTAGTGCAG,26600 fluorescence intensity (a.u.)
16,GAGCACCGGCTAAATCCAGCAGCGCGGGCAGCGGGCGAGACGGAGTCACCTAGTGCAG,23100 fluorescence intensity (a.u.)
17,ATCATGAATATATAATAAGCATACAATTCATTATTAGCATCGGAGTCACCTAGTGCAG,3600 fluorescence intensity (a.u.)
18,TTCCCTCTAACTCTGAGTCACCGATATATGGGCCCATTAACGGAGTCACCTAGTGCAG,6770 fluorescence intensity (a.u.)
19,CGGGCGCGCCACGGCGGCGACGGGTCGGGTCTCGCTGTCGCGGAGTCACCTAGTGCAG,4000 fluorescence intensity (a.u.)
20,TTGGCCCCAATATTGAATCCTGTAGGTGACACATTAACTGCGGAGTCACCTAGTGCAG,3760 fluorescence intensity (a.u.)
21,ACGATGACTGGGAGAGGTGATGAGATCTGGTGAGGTGTCCCGGAGTCACCTAGTGCAG,5530 fluorescence intensity (a.u.)
22,CTTAATTACTCCTATATATATAAGGCAACCTATTATTGCCCGGAGTCACCTAGTGCAG,13500 fluorescence intensity (a.u.)
23,AAATAGGTGATGATGCAAACTGGTTTACCATGATGCAGTACGGAGTCACCTAGTGCAG,3600 fluorescence intensity (a.u.)
24,CCAGGTCACATTCACATCTCTCTTTACCAAAGCTAAGCCACGGAGTCACCTAGTGCAG,48100 fluorescence intensity (a.u.)
25,GCACCGTTGCTACGTGAGACCGCGCGGTCTCGCACTTTTACGGAGTCACCTAGTGCAG,3160 fluorescence intensity (a.u.)
26,ATAGATTGTGGGGCCCAGATGTTGGTGGTAGACGTGGTTTCGGAGTCACCTAGTGCAG,3400 fluorescence intensity (a.u.)
27,GCCGCGGCGGACGCGCACGATGTTCCCGCGCATGATGTGGCGGAGTCACCTAGTGCAG,6670 fluorescence intensity (a.u.)

row,Sequence,binding signal
1,CTATTTTAATCCCTCGAGAGAATATCCCCTCGTTCTTTGTCGGAGTCACCTAGTGCAG,3900 fluorescence intensity (a.u.)
2,AAAGATTCCTAATTTAGATAACGTGTTTACACCACGACGGCGGAGTCACCTAGTGCAG,3490 fluorescence intensity (a.u.)
3,CGATCCCTAACATTGAGGAACGAGTCTCACGCATTCTCTCCGGAGTCACCTAGTGCAG,3750 fluorescence intensity (a.u.)
4,TATAGTCCACTAAGTTCAACATGCTACCACGCCACATCATCGGAGTCACCTAGTGCAG,6500 fluorescence intensity (a.u.)
5,GCTCCTTCTCGAACCCGCCCAGCACTGGCCGCGGTGGCACCGGAGTCACCTAGTGCAG,4220 fluorescence intensity (a.u.)
6,GCCAAAGTAGAATGTCTCTTTCGAATCACATTGTACAGAGCGGAGTCACCTAGTGCAG,5190 fluorescence intensity (a.u.)
7,AGTTGTGATCCCGATCTGTAATAGTTAGCTGTCATCACGTCGGAGTCACCTAGTGCAG,3730 fluorescence intensity (a.u.)
8,CGGGTGCGGCGCTGCAGCTGCTAACCTTCCCACGCCACGCCGGAGTCACCTAGTGCAG,3460 fluorescence intensity (a.u.)
9,CGTGCAAGTCGATTTCATCACTTGATCACGCCGATGCAGGCGGAGTCACCTAGTGCAG,30400 fluorescence intensity (a.u.)
10,TTTACCAACCAGAAGGTCTTGAGCTCGATTCCTTGCGCTTCGGAGTCACCTAGTGCAG,3670 fluorescence intensity (a.u.)
11,ATGAATAATAAACTAAAGGCTCCTAGATGGCTGGAGGTTGCGGAGTCACCTAGTGCAG,3250 fluorescence intensity (a.u.)
12,GCCTCGCACAGTCGCGTTCCACGAATGCTCACGCGCGCGCCGGAGTCACCTAGTGCAG,3530 fluorescence intensity (a.u.)
13,AATCCATGCTGACACGTAGATGTGTCATGCCACATAGACACGGAGTCACCTAGTGCAG,10200 fluorescence intensity (a.u.)
14,AACTGCCACGTAAGTGCCACGTCAAAGCCACGTACAACGACGGAGTCACCTAGTGCAG,24200 fluorescence intensity (a.u.)
15,GGGAATCGGGAGAGCGAGATGTGCCGTGTGCGTGCGTGTCCGGAGTCACCTAGTGCAG,4590 fluorescence intensity (a.u.)
16,GGTCTCACCGTGGCGCCTCCCGTCCTGCTCGACGTGTGTCCGGAGTCACCTAGTGCAG,3630 fluorescence intensity (a.u.)
17,TACAACTATCGGGTGCACCGTCCCGTCGTCCACGTAGAAGCGGAGTCACCTAGTGCAG,3480 fluorescence intensity (a.u.)
18,GTTATCTGATTCACGTTTACGAACGTAACTGTAAAAGAGACGGAGTCACCTAGTGCAG,3460 fluorescence intensity (a.u.)
19,TCGGCAACCTGTAGAAGCCCCTTCTCTGACGCGGCTCTTGCGGAGTCACCTAGTGCAG,5270 fluorescence intensity (a.u.)
20,ATTTCGAATTTCCCATTTCTTTTAGCGCCACGTCACGGCACGGAGTCACCTAGTGCAG,29300 fluorescence intensity (a.u.)
21,CCCCTCTTCCTTTCACGCGAACCGGCACCCTCCCGACCCTCGGAGTCACCTAGTGCAG,3300 fluorescence intensity (a.u.)
22,CACCACGTCCCATCCCGTCGCGTCGCCGCACATTCACCCCCGGAGTCACCTAGTGCAG,3840 fluorescence intensity (a.u.)
23,ATCTCATTAAACACGTGGTCACAATTAGCATAGATGAACTCGGAGTCACCTAGTGCAG,4190 fluorescence intensity (a.u.)
24,TGGACGGCCAGCTCATTTCCACGACATCCATTTCCTTTCGCGGAGTCACCTAGTGCAG,11400 fluorescence intensity (a.u.)
25,TCTCCCAGCCTCCCAGCCAGGCCCAGCAATTGCGTTGGCACGGAGTCACCTAGTGCAG,4930 fluorescence intensity (a.u.)
26,TGTCTCCACCACGTCGATATCGATCGAGTGCACCCTCCATCGGAGTCACCTAGTGCAG,4790 fluorescence intensity (a.u.)
27,ACCATATGACTTATATATCTGTCGTCAGCTCATTTCTATGCGGAGTCACCTAGTGCAG,7290 fluorescence intensity (a.u.)

# Random excerpt: three entries already listed, in no set order.
row,Sequence,binding signal
8,ATCTGGCATAGAAACGTTGTCACTCTCATCGGCTACTGCCCGGAGTCACCTAGTGCAG,19300 fluorescence intensity (a.u.)
17,TACAACTATCGGGTGCACCGTCCCGTCGTCCACGTAGAAGCGGAGTCACCTAGTGCAG,3480 fluorescence intensity (a.u.)
3,CGATCCCTAACATTGAGGAACGAGTCTCACGCATTCTCTCCGGAGTCACCTAGTGCAG,3750 fluorescence intensity (a.u.)

# Reference: article PMC7819943, “Rice protein-binding microarrays: a tool to detect cis-acting elements near promoter regions in rice”
